In patent US20260272923A1, “NONSENSE MEDIATED DECAY INHIBITOR COMPOUNDS” (The Johns Hopkins University, priority 2023, published 2026):
Some entries share one result that the patent states for a list of compounds.

System: nonsense mediated decay (NMD)
Experiment: RNA sequencing of NCI-H358 and LS180 cancer cell lines
Format: cell-based
Conditions: RNA-Seq analysis in LS180; both cell lines
From the text: It was next sought to evaluate whether LY3023414 could relieve repression of indel containing transcripts in cancer cells. The microsatellite stable NCI-H358 and microsatellite instable LS180 lung and colorectal cancer cell lines were chosen respectively. Nearly 40% of heterozygous indel and 25% of nonsense single base-pair mutation containing genes show increased expression of their mutant allele when treated with LY3023414 when evaluated by RNA sequencing (FIG. 2A). […] Heterozygous single nucleotide polymorphism (SNP) Ring Finger Protein 43 (RNF43) and drosha ribonuclease […] (DROSHA) served as controls, and allele ratios remain unchanged with treatment (FIG. 2B). To investigate for changes at the protein level, NCI-H358 cells were treated for 24 hours with either LY3023414 or DMSO.
Analyzing a wider set of 21 NMD sensitive genes from the RNA-Seq analysis in LS180 confirmed that LY3023414 and SMG1 specific inhibitor increase the same 18 genes with a greater than 80% re-expression rate, in both cell lines. […] As SMG1 inhibition is an off target effect for LY3023414, the concentrations used in this study may result in inhibition of a number of different kinases.

In the case of `CO[C@@H](C)Cn1c(=O)n(C)c2cnc3ccc(-c4cncc(C(C)(C)O)c4)cc3c21` [LY3023414], the “re-expression rate among 21 NMD sensitive genes (same 18 genes increased)” value is reported as “greater than 80%”.
